According to US8097728B2, “Iminosugar compounds with antiflavirus activity” (Philadelphia Health & Education Corporation, priority 2007, dated 2012):
At least one compound was matched to its structure with a doubt left. Some results were stated once for a whole list of compounds, not compound by compound.

How the values were obtained:
MDBK cells = assay: MTT compound toxicity assay on MDBK cells; assay type: cell-based, Bovine; conditions: 72 hours, text to FIG. 2B / 4B
Protocol: Compound toxicity assay. Compound cytotoxicity was assessed by using an MTT based toxicity assay kit (Sigma, St. Louis, Mo.) as described elsewhere (Gu et al., 2006). Briefly, cells cultured under conditions identical to those used in the viral assay were incubated with various concentrations of the compound for 72 hours. MTT was added to the media to a final concentration of 0.5 mg/ml and was incubated for 3 hours at 37 C. After the culture media was removed, formazan crystals was dissolved by adding 150 ul of solubilization solution (10% Triton X-100, 0.1 N HCl in anhydrous isopropanol) for 15-30 minutes. The absorbance of the dissolved formazan was measured spectrophotometrically at 570 nm with absorbance at 690 nm as background.
(§1) The anti-viral activity of this family of compounds against BVDV was then determined by a single cycle viral yield reduction assay in Madin Darby Bovine Kidney (MDBK) cells where the compounds are incubated with cells for 20 hours during the period of infection. Yields of virus were then determined by plaque assay on new MDBK cell monolayers. Compound toxicity was measured by MTT assay and the CC50 determined as the concentration of compound producing 50% reduction in absorption readings. […]

WNV = WNV yield reduction assay in BHK cells; conditions: moi 0.05, FIG. 3B / 4D
Protocol: Cells and viruses. BVDV-free MDBK cells (CCL 22) were obtained from the American Type Culture Collection and propagated in DMEM/F12 essential medium supplemented with penicillin (500 U/ml), streptomycin (500 U/ml), and 10% heat inactivated horse serum (Invitrogen). Cells were maintained in a humidified incubator at 37° C. with 5% CO2. BVDV (NADL strain) was obtained from Dr. Rubin Donis (Univ. of Nebraska-Lincoln). For infections, virus inoculum was added in complete medium and adsorbed for 1 h at 37° C., the inoculum was then removed, the cells washed once with medium and fresh medium containing compounds added. Virus stocks were prepared by freeze-thawing the infected cells and culture supernatant three times followed by centrifugation at 1,000 g for 5 min. Stock titers were determined, and stocks were aliquoted and stored at −80° C. […]
WNV and DV Yield Reduction assay: Antiviral activity against WNV was evaluated in a yield reduction assay. […] Viral foci were detected for enumeration by immunostaining as described previously (Rossi et al., 2005). […]
For this purpose, BHK cells were infected with WNV at an moi of 0.05, and incubated in either the absence or presence of various concentrations of N-butylcyclohexyl-DNJ (SP169) and N-propylcyclohexyl-DNJ (SP173). After three days, the amount of progeny virus produced was determined by plaque assays on indicator Vero cells.

BVDV = BVDV single cycle virus yield reduction assay in MDBK cells; assay type: cell-based, Bovine Viral Diarrhea virus (NADL strain); conditions: FIG. 2C / 4C
Protocol: BVDV antiviral and plaque assays. To evaluate antiviral activity against BVDV, a single cycle virus yield reduction assay was performed in the presence of various concentrations of the test compounds. Specifically, 2×10^5 MDBK cells/well were plated in 24 well plates. Twenty-four hours later, the cells were infected with BVDV at a multiplicity of infection (moi) of 0.5 PFU/cell in 100 ul complete media. After adsorption for 1 h at 37° C., the inoculum was removed, and cells were washed with media before media containing vehicle or various concentrations of each compound was added. At 22 hour post infection, both cell and media were collected and freeze-thawed three times before the virus was titered. For BVDV virus titer determination, 10^−2, 10^−3, and 10^−4 dilutions of virus were inoculated onto MDBK cells as described previously (Gu et al., 2000; Jordan et al., 2002). […] Plaques were counted directly under the microscope or after staining with crystal violet in 70% methanol for 15 min.
as §1, with “monolayers.” for “monolayers. Compound toxicity was measured by MTT assay and the CC50 determined as the concentration of compound producing 50% reduction in absorption readings.”

Row | Compound | CC50 (MDBK cells) [µM] | antiviral activity against WNV (in words) (WNV) | antiviral activity against BVDV (in words) (BVDV)
1 | OC[C@@H]1[C@@H](O)[C@H](O)[C@@H](O)CN1CCCCCCC1CCCCC1 [OSL-2, N-hexylcyclohexyl-DNJ] | > 300 | – | –
2 | OC[C@@H]1[C@@H](O)[C@H](O)[C@@H](O)CN1CCCCCCC1(O)CCCCC1 [OSL-3, N-hexyl(1-hydroxycyclohexyl)-1,5-dideoxy-1,5-imino-D-glucitol] | – | as effective against BVDV and WNV as the other compounds in this series tested | as effective against BVDV and WNV as the other compounds in this series tested
3 | OC[C@@H]1[C@@H](O)[C@H](O)[C@@H](O)CN1CCCCC1(O)CCCCC1 [OSL-12-31, N-butyl(1-hydroxycyclohexyl)-1,5-dideoxy-1,5-imino-D-glucitol] | – | – | substantially less active against BVDV
4 | OC[C@@H]1[C@@H](O)[C@H](O)[C@@H](O)CN1CCCCC1=CCCCC1 [OSL-12-51, N-butyl(1-cyclohexenyl)-DNJ] | > 300 | – | –
